Laboratory results reported in US20140199314A1.
No constants are given. Whether binding was seen depends on the method and setting. Binding seen in cells or lysates may run through a third protein. Some entries that bind do so weakly or less than the wild type. Sequences can lack the tags named with a protein.

Amino acid sequences for entries named in this document (tags omitted). A change or cut given only in a name is not applied to a line headed by its entry.
UniProt P22004: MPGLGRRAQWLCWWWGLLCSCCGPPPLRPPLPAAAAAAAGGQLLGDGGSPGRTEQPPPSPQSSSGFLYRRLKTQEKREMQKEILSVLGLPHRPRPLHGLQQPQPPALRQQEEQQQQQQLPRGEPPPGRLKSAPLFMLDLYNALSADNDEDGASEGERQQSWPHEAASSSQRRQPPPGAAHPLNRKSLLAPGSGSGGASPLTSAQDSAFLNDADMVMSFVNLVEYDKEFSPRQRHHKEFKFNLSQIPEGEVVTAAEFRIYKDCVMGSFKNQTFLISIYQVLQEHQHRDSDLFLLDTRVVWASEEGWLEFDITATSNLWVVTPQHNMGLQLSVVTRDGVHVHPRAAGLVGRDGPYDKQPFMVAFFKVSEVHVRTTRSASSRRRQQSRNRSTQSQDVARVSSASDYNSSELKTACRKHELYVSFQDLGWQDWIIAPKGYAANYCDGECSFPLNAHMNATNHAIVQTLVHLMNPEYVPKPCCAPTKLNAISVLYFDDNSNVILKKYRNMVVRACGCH

Biological target: human BMP-6 (human) (UniProt P22004)
Assay: co-precipitation with hBMP6 and mAb507 on Protein A beads, Western blot

binding: binds
B1: hHJV.His (soluble human hemojuvelin protein, His tagged) (receptor, UniProt Q6ZVN8 36-400, looked up, not shown: small tags and cut ends)
chain: QCKILRCNAEYVSSTLSLRGGGSSGALRGGGGGGRGGGVGSGGLCRALRSYALCTRRTARTCRGDLAFHSAVHGIEDLMIQHNCSRQGPTAPPPPRGPALPGAGSGLPAPDPCDYEGRFSRLHGRPPGFLHCASFGDPHVRSFHHHFHTCRVQGAWPLLDNDFLFVQATSSPMALGANATATRKLTIIFKNMQECIDQKVYQAEVDNLPVAFEDGSINGGDRPGGSSLSIQTANPGNHVEIQAAYIGTTIIIRQTAGQLSFSIKVAEDVAMAFSAEQDLQLCVGGCPPSQRLSRSERNRRGAITIDTARRLCKEGLPVEDAYFHSCVFDVLISGDPNFTVAAQAALEDARAFLPDLEKLHLFPSD
